Experimental findings from paper PMC5833375 are described below.

Amino acid sequences for entries named in this document (tags omitted).
UniProt Q9UNE7: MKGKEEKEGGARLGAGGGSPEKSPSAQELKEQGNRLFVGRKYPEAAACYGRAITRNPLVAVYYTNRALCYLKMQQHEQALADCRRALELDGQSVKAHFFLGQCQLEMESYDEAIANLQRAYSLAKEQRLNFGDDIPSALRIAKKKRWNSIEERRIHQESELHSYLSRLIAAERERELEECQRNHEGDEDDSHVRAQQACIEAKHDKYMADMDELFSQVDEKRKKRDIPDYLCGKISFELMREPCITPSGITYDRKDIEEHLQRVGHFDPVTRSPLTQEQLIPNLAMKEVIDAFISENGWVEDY
UniProt Q14258: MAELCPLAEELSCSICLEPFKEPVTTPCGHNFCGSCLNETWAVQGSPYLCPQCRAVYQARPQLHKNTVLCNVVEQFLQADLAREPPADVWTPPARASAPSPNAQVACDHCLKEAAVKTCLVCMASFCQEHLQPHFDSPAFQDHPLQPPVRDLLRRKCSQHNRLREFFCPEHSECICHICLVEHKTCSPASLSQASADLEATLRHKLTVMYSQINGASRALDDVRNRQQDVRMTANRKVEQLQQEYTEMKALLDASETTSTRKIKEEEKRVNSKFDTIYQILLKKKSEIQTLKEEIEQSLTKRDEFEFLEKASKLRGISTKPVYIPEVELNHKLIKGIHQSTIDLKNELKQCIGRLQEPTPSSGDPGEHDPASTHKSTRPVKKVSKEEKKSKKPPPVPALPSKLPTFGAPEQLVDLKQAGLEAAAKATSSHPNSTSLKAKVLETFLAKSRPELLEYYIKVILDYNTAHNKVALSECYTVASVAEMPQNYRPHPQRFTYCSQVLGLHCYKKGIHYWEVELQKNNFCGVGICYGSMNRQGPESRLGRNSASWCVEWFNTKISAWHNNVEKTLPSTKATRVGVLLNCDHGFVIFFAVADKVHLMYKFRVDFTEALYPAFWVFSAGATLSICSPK

In the test the target is human wild-type CHIP N-terminally tagged with Xpress-6x-His (carboxyl terminus of Hsp70-interacting protein) (human) (UniProt Q9UNE7). Description: co-IP; HEK293 cells co-transfected (also with UBE1L and Myc-UbcH8; Fig. 2b also with FLAG-ISG15); lysates immunoprecipitated with anti-Xpress antibody and Protein A-Sepharose, 4 °C, washed with 50 mM Tris pH 7.5, 1% Nonidet P40, 150 mM NaCl, 10% glycerol; western blot with anti-HERC5 or anti-Myc. In general terms: In western blotting, separated proteins are transferred to a membrane and probed.

Results are given in words; binding and its absence hold for the method and conditions named. In cells and extracts the contact can be indirect. Some entries that bind do so weakly or less than the wild type. Where a sequence is shown, tags or fusion partners need not be part of it.

As for “Myc-tagged EFP (from UniProt Q14258 1-630) (enzyme)”, the binding entry is listed as “binds”.

B1: FLAG-tagged HERC5 (enzyme, UniProt Q9UII4 1-1024)
chain: MERRSRRKSRRNGRSTAGKAAATQPAKSPGAQLWLFPSAAGLHRALLRRVEVTRQLCCSPGRLAVLERGGAGVQVHQLLAGSGGARTPKCIKLGKNMKIHSVDQGAEHMLILSSDGKPFEYDNYSMKHLRFESILQEKKIIQITCGDYHSLALSKGGELFAWGQNLHGQLGVGRKFPSTTTPQIVEHLAGVPLAQISAGEAHSMALSMSGNIYSWGKNECGQLGLGHTESKDDPSLIEGLDNQKVEFVACGGSHSALLTQDGLLFTFGAGKHGQLGHNSTQNELRPCLVAELVGYRVTQIACGRWHTLAYVSDLGKVFSFGSGKDGQLGNGGTRDQLMPLPVKVSSSEELKLESHTSEKELIMIAGGNQSILLWIKKENSYVNLKRTIPTLNEGTVKRWIADVETKRWQSTKREIQEIFSSPACLTGSFLRKRRTTEMMPVYLDLNKARNIFKELTQKDWITNMITTCLKDNLLKRLPFHSPPQEALEIFFLLPECPMMHISNNWESLVVPFAKVVCKMSDQSSLVLEEYWATLQESTFSKLVQMFKTAVICQLDYWDESAEENGNVQALLEMLKKLHRVNQVKCQLPESIFQVDELLHRLNFFVEVCRRYLWKMTVDASENVQCCVIFSHFPFIFNNLSKIKLLHTDTLLKIESKKHKAYLRSAAIEEERESEFALRPTFDLTVRRNHLIEDVLNQLSQFENEDLRKELWVSFSGEIGYDLGGVKKEFFYCLFAEMIQPEYGMFMYPEGASCMWFPVKPKFEKKRYFFFGVLCGLSLFNCNVANLPFPLALFKKLLDQMPSLEDLKELSPDLGKNLQTLLDDEGDNFEEVFYIHFNVHWDRNDTNLIPNGSSITVNQTNKRDYVSKYINYIFNDSVKAVYEEFRRGFYKMCDEDIIKLFHPEELKDVIVGNTDYDWKTFEKNARYEPGYNSSHPTIVMFWKAFHKLTLEEKKKFLVFLTGTDRLQMKDLNNMKITFCCPESWNERDPIRALTCFSVLFLPKYSTMETVEEALQEAINNNRGFG
Consider B1, for which the binding entry is “binds”.
